{"source": "patent US5951473A", "about": "“Determination of intracellular sodium and potassium ions by NMR” (Board of Regents, The University of Texas System, priority 1997, dated 1999)", "tested_on": "^23 Na in rat liver", "assay": "^23 Na T1 and T2 relaxation measurements in rat liver with shift reagent present", "assay_type": "in vivo", "details": "Table I", "note": "No dose or concentration is given here for some results."}
{"substance": "thulium(III) 1,4,7,10-tetraazacyclododecane-1,4,7,10-tetrakis (methylene phosphonate) [TmDOTP^5-]", "values": [{"measurement": "T2(fast), intracellular", "setting": "intracellular", "result": "1.3 ± 0.1"}, {"measurement": "T2(slow), shifted peak", "setting": "shifted peak", "result": "10.0 ± 2.8"}]}
